Measured values: article PMC3386930, “Altering APP Proteolysis: Increasing sAPPalpha Production by Targeting Dimerization of the APP Ectodomain” (PLoS ONE, 2012)

Chains of the proteins cited; added tags and fusions are not shown. Lines headed by an entry give the natural chain unless they say otherwise; changes in a name come on top.
UniProt P05067: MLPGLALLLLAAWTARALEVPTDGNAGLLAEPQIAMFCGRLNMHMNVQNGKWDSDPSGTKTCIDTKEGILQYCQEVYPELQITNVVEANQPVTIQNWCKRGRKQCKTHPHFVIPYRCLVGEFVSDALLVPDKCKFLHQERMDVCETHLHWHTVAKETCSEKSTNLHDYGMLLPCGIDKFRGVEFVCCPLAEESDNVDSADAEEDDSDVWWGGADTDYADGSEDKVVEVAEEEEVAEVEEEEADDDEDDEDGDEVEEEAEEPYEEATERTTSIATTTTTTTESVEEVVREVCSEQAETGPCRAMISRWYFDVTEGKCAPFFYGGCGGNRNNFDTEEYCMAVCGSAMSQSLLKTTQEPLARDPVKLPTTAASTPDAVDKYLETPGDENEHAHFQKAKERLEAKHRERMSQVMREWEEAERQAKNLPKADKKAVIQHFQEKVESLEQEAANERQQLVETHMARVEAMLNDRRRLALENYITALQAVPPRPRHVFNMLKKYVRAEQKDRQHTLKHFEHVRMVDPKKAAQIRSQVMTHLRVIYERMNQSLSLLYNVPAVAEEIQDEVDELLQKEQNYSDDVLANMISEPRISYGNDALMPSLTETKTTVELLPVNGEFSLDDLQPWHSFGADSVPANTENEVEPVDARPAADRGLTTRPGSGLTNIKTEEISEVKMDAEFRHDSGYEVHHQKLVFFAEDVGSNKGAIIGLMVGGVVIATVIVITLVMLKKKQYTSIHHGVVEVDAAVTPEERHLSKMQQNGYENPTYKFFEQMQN

Columns and labels:
TRX-eAPP290–624 = assay: Small-angle X-ray scattering (SAXS) of TRX-eAPP290–624 complexes; format: binding; settings: for MWcalc/MWseq: SAXS relative mass, MWseq 52-kDa for TRX-eAPP290–624, max. error ±0.2, monomer around 1.3, protein alone 2.0; for Dmax / Rg: SAXS, GNOM, TRX-eAPP290–624 with peptide; for Dmax: maximum dimension, max. estimated error ±10 Å; for Rg: radius of gyration, max. estimated error ±2 Å
MBP-eAPP230–624 = assay: Small-angle X-ray scattering (SAXS) of MBP-eAPP230–624 complexes; format: binding; settings: for MWcalc/MWseq: SAXS relative mass, max. error ±0.2; for Dmax / Rg: SAXS; for Dmax: max. estimated error ±10 Å; for Rg: max. estimated error ±2 Å
Protocol: The excitation spectra of the intrinsic tryptophan fluorescence were recorded using either a Shimadzu RF-530PC (Shimadzu Scientific Instruments) or a Spectramax XPS spectrophotometer (Molecular Devices).
The samples were incubated on ice for 20 minutes and then concentrated to 50 µl with 10-kDa cutoff concentrators (Millipore). […] Samples of the filtrates were used for buffer subtraction.
The samples were then concentrated and purified with a Superdex S200 size-exclusion column with 20 mM Tris pH 7.4, 100 mM sodium chloride and 2 mM EDTA. Samples of the protein buffer from the size-exclusion columns were used for buffer subtraction.
Data collection and processing
Small-angle X-ray scattering data were collected using protein concentrations in the range of 0.5–3 mg/ml and an X-ray wavelength of 1.11 Å at beam line 12.3.1 (Advanced Light Source). Data were integrated with software customized for the beam line and processed with the program PRIMUS [30]. The program GNOM [31] was used to calculate the maximum dimension and the radius of gyration and to estimate the intensity of the scattering at zero angle for higher concentration samples.

[1] = MWseq 90-kDa for MBP-eAPP230–624, Aβ peptides, protein alone 2.0
[2] = maximum dimension, GNOM, MBP-eAPP230–624 with Aβ peptide
[3] = radius of gyration, GNOM, MBP-eAPP230–624 with Aβ peptide
[4] = 50 µM compound, 1:12 molar ratio, PBS plus 2% DMSO, 2% DMSO control 2.0
[5] = 50 µM compound, 1:12 molar ratio, PBS plus 2% DMSO, 2% DMSO control 54
[6] = 50 µM compound, 1:12 molar ratio, PBS plus 2% DMSO, 2% DMSO control 180
[7] = 1,8-ANS at 1:20 molar ratio of protein to 1,8-ANS

Compound | MWcalc/MWseq (TRX-eAPP290–624) | Dmax (TRX-eAPP290–624) [Å] | Rg (TRX-eAPP290–624) [Å] | MWcalc/MWseq (MBP-eAPP230–624; [1]) | Dmax (MBP-eAPP230–624; [2]) [Å] | Rg (MBP-eAPP230–624; [3]) [Å] | other results
7-kDa Aβ1-40: 7-kDa Aβ1-40 dimers, prepared by sonication and 15 minutes incubation | 1.1 | 160 | 40 | 1.1 | 210 | 63 | 
CCN(CC)C(=S)SC(=S)N(CC)CC [Sulfiram] |  |  |  |  |  |  | MWcalc/MWseq (MBP-eAPP230–624; [4]): 1.7; Rg (MBP-eAPP230–624; [5]): 53 Å; Dmax (MBP-eAPP230–624; [6]): 170 Å
CCN(CC)C(=S)SSC(=S)N(CC)CC [Disulfiram] |  |  |  |  |  |  | MWcalc/MWseq (MBP-eAPP230–624; [4]): 1.5; Rg (MBP-eAPP230–624; [5]): 51 Å; Dmax (MBP-eAPP230–624; [6]): 160 Å
Aβ11-17: Aβ fragment (EVHHQKL; Amyloid-beta protein 42; UniProt P05067 682-688, looked up, fragment) | 1.2 | 130 | 38 |  |  |  | 
20-kDa Aβ1-42: 20-kDa Aβ1-42 oligomers |  | 160 | 43 |  | 210 | 58 | 
O=S(=O)(O)c1cccc2cccc(Nc3ccccc3)c12 [1,8-ANS, 1-anilinonaphthalene-8-sulfonic acid] |  |  |  |  |  |  | MWcalc/MWseq (MBP-eAPP230–624; 1,8-ANS at 1:20 molar ratio): 1.9; Rg (MBP-eAPP230–624; [7]): 63 Å; Dmax (MBP-eAPP230–624; [7]): 190 Å
Aβ5-14: Aβ fragment (RHDSGYEVHH; Amyloid-beta protein 42; UniProt P05067 676-685, looked up, fragment) |  |  |  | 1.6 | 180 | 54 | 
Aβ1-28: Aβ fragment | 1.5 | 140 | 42 | 1.2 | 180 | 54 | 
